Test system: nanobacteria
Assay: Antibiotic sensitivity test by Minimal Inhibition Concentration (MIC), 96-well plates, absorbance at 650 nm
Assay type: cell-based
Conditions: light or radiation study, 288 h, read-out: MIC 50
Experimental: Antibiotic sensitivity tests were carried out by measuring Minimal Inhibition Concentration (MIC), a common practice in clinical microbiology.
The tests were performed in 96-well plates. DMEM (commercial cell culture medium) containing 10% gamma-irradiated fetal bovine serum (FBS)(dose about 3 Mrads; this treatment inactivates nanobacteria in the serum so that the basic medium is sterile) was used as the basic culture medium. These components are commercially available, e.g., from Gibco. The antibiotic stock solutions were sterile filtered through 0.2 micrometer filters. The stock solutions were then serially diluted (into the basal culture medium) to provide a final starting concentration of 0.5 mg/ml and 1:2 dilutions therefrom, unless otherwise specified. For each antibiotic three parallel tests were performed using all the antibiotic dilutions and, additionally, positive and negative control experiments. […] 100 µl of dilutions of the nanobacteria inoculum were added to all wells except the negative controls. The plates were incubated at mammalian cell culture conditions (37° Celsius, 5% carbon dioxide, 95% humid air). The absorbance values at 650 nm were recorded by using an ELISA reader at the start, and at 4, 8, 12, 14 days. […] Calculations were based on absorbance curves where absorbance was plotted against concentration of the antibiotic.

`CCC[C@@H]1C[C@@H](C(=O)N[C@@H]([C@H]2O[C@H](SC)[C@H](O)[C@@H](O)[C@H]2O)[C@H](C)Cl)N(C)C1` [Clindamycin] was tested, and the IC50 was > 500 µg/mL.
